The list shows only some results of the screen, not a fair sample: it gathers tests that were run many times, whatever their T/C, doses with no T/C, and many T/C values between a quarter and a half above the control. Further doses and runs are listed elsewhere. T/C: endpoint of the treated group in % of that of the vehicle group. Some entries give survivors of the animals treated and no T/C: the source files T/C as zero there, which appears to mark a toxic dose or a test without result, not a measured value. Some survivor counts are full or nearly so, which does not show that the dose was tolerated: the source hardly ever lists a survival T/C far under the control, and the zero likely stands for such cases as well. Survivors were counted at the toxicity check, usually on the fifth day, unless a day is given; later deaths do not show. Schedules are NCI's codes, read here as Q, the interval in days (D) or hours (H), X, the number of doses. Some doses were run more than once; their values stand side by side, smallest first. Where survival is the endpoint, this PubChem deposit counts one and a half times the control or more as active, and values a quarter to a half above the control carry no call in these data; other NCI protocols may use other cut-offs. Some T/C values carry the count of animals alive at the toxicity check (mostly the fifth day); where none is given, no animal had died by that day.

The assay relates to B6C3F1 mice, ip Sarcoma M5076, median survival T/C. Briefly: NCI In Vivo Anticancer Drug Screen. Data for tumor model Sarcoma M5076 (intraperitoneal) in B6C3F1 mice. To be noted: T/C endpoint: median survival time, higher T/C = longer survival. A digest of the protocol:
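The readout is a ratio of survival in drug-treated animals to survival in animals given vehicle alone, taken in mice bearing a transplanted tumour line.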

Setting [1] is: dose: 24.0 mg/kg/injection, schedule: Q04DX005 (ip), vehicle: Klucel (hydroxypropylcellulose) (HPC).
The mark [2] stands for this setting: dose: 2.0 mg/kg/injection, schedule: Q04DX004 (ip), vehicle: saline.
[3] abbreviates: dose: 2.0 mg/kg/injection, schedule: Q04DX005 (ip), vehicle: saline.
Where [4] appears, read: dose: 400.0 mg/kg/injection, schedule: Q04DX004 (ip), vehicle: saline.

On to `CC1CCC(NC(=O)N(CCCl)N=O)CC1` (stereo not given), for which the T/C is 128 and 143 % of control (dose: 1.5 mg/kg/injection, schedule: Q04DX004 (ip), vehicle: Klucel (hydroxypropylcellulose) (HPC)); 145 and 158 % of control (dose: 3.0 mg/kg/injection, schedule: Q04DX004 (ip), vehicle: Klucel (hydroxypropylcellulose) (HPC), evaluated on day 60); 113, 127, 137, 147, 165 [9 of 10 alive on day 14], 185 % of control (dose: 3.0 mg/kg/injection, schedule: Q04DX004 (ip), vehicle: Klucel (hydroxypropylcellulose) (HPC), evaluated on day 75); 133, 139, 168, 214 % of control (dose: 3.0 mg/kg/injection, schedule: Q04DX005 (ip), vehicle: Klucel (hydroxypropylcellulose) (HPC)); 194, 234, 241 % of control (dose: 6.0 mg/kg/injection, schedule: Q04DX004 (ip), vehicle: Klucel (hydroxypropylcellulose) (HPC), evaluated on day 60); 131, 152, 190, 205, 221, 278 % of control (dose: 6.0 mg/kg/injection, schedule: Q04DX004 (ip), vehicle: Klucel (hydroxypropylcellulose) (HPC), evaluated on day 75). The T/C reads like this: (dose: 6.0 mg/kg/injection, schedule: Q04DX005 (ip), vehicle: Klucel (hydroxypropylcellulose) (HPC)) 147, 183, 188, 268 % of control; (dose: 12.0 mg/kg/injection, schedule: Q04DX004 (ip), vehicle: Klucel (hydroxypropylcellulose) (HPC), evaluated on day 60) 217, 234, 254 % of control; (dose: 12.0 mg/kg/injection, schedule: Q04DX004 (ip), vehicle: Klucel (hydroxypropylcellulose) (HPC), evaluated on day 75) 162, 197, 221, 269, 303, 353 % of control; (dose: 12.0 mg/kg/injection, schedule: Q04DX005 (ip), vehicle: Klucel (hydroxypropylcellulose) (HPC)) 221, 268, 269, 353 % of control; (dose: 24.0 mg/kg/injection, schedule: Q01DX004 (ip), vehicle: Klucel (hydroxypropylcellulose) (HPC)) 141 % of control; (dose: 24.0 mg/kg/injection, schedule: Q04DX004 (ip), vehicle: Klucel (hydroxypropylcellulose) (HPC), evaluated on day 60) 234, 241 [9 of 10 alive on day 14], 254 % of control. Further, the T/C by setting is: (dose: 24.0 mg/kg/injection, schedule: Q04DX004 (ip), vehicle: Klucel (hydroxypropylcellulose) (HPC), evaluated on day 75) 87, 221, 303, 315, 339, 353 % of control; under setting [1], 221 and 353 % of control. In addition, the survivor count was 9 of 10 on day 9 and 10 of 10 on day 9 under setting [1]; 5 of 10 on day 14 (dose: 48.0 mg/kg/injection, schedule: Q04DX004 (ip), vehicle: Klucel (hydroxypropylcellulose) (HPC)).

Turning to `COC(=O)[C@@]12OC[C@]34[C@H]([C@@H](O)[C@@H]1O)[C@@]1(C)CC(=O)C(O)=C(C)[C@@H]1C[C@H]3OC(=O)[C@H](OC(=O)/C=C(\C)C(C)C)[C@@H]24`, the T/C was 97, 106, 107, 111, 117 % of control (dose: 0.12 mg/kg/injection, schedule: Q04DX004 (ip), vehicle: saline); 125 % of control (dose: 0.12 mg/kg/injection, schedule: Q04DX005 (ip), vehicle: saline); 140 % of control (dose: 0.13 mg/kg/injection, schedule: Q04DX005 (ip), vehicle: saline); 98 % of control (dose: 0.25 mg/kg/injection, schedule: Q04DX004 (ip), vehicle: saline, evaluated on day 60); 102, 105 [8 of 10 alive on day 14], 109, 110, 111, 114 [9 of 10 alive on day 9], 125, 127 % of control (dose: 0.25 mg/kg/injection, schedule: Q04DX004 (ip), vehicle: saline, evaluated on day 75); 88, 106, 114, 121, 123 % of control (dose: 0.25 mg/kg/injection, schedule: Q04DX005 (ip), vehicle: saline, evaluated on day 75). Further, the T/C was 165 % of control (dose: 0.25 mg/kg/injection, schedule: Q04DX005 (ip), vehicle: saline, evaluated on day 100); 109 % of control (dose: 0.5 mg/kg/injection, schedule: Q04DX004 (ip), vehicle: saline, evaluated on day 60); 91, 100, 110, 119, 120, 129, 131, 132 % of control (dose: 0.5 mg/kg/injection, schedule: Q04DX004 (ip), vehicle: saline, evaluated on day 75); 100, 106, 125, 126, 139 % of control (dose: 0.5 mg/kg/injection, schedule: Q04DX005 (ip), vehicle: saline, evaluated on day 75); 150 % of control (dose: 0.5 mg/kg/injection, schedule: Q04DX005 (ip), vehicle: saline, evaluated on day 100); 110 % of control (dose: 1.0 mg/kg/injection, schedule: Q04DX004 (ip), vehicle: saline, evaluated on day 60). For the same compound, the T/C was 107 [9 of 10 alive on day 14], 109, 111, 113 [7 of 10 alive on day 14], 120, 121, 124, 150 % of control (dose: 1.0 mg/kg/injection, schedule: Q04DX004 (ip), vehicle: saline, evaluated on day 75); 97, 115, 123, 143, 156 % of control (dose: 1.0 mg/kg/injection, schedule: Q04DX005 (ip), vehicle: saline, evaluated on day 75); 147 % of control (dose: 1.0 mg/kg/injection, schedule: Q04DX005 (ip), vehicle: saline, evaluated on day 100); 104, 117, 119, 123 [9 of 10 alive on day 14], 139, 142 % of control under setting [2]; 89 [8 of 10 alive], 94, 129 [7 of 10 alive on day 9], 153 % of control [9 of 10 alive on day 9] under setting [3]. Further, the survivor count by setting is: under setting [2], 3 of 10 on day 14, 3 of 10 on day 9, 6 of 10; under setting [3], 5 of 8 on day 17 and 9 of 10 on day 9; (dose: 4.0 mg/kg/injection, schedule: Q04DX004 (ip), vehicle: saline) 1 of 10 on day 14.

Turning to `CNc1nc(N(C)C)nc(N(C)C)n1`, for the setting “dose: 400.0 mg/kg/injection, schedule: Q04DX004 (ip), vehicle: suspension in saline”, the survivor count is 0 of 10 on day 14.

Take `CN(C)CCC(=O)C(=Cc1ccc(O)cc1)C(=O)CCN(C)C`: under setting [4], the survivor count was 0 of 10 on day 14.

On to `CC(C)c1ccc(C2NC(=S)NC(=O)C2C#N)cc1` (stereo not given), for which the survivor count is on record as 2 of 10 on day 14 under setting [4] and 0 of 10 on day 14 (dose: 800.0 mg/kg/injection, schedule: Q04DX004 (ip), vehicle: saline).

Source of the values: PubChem BioAssay AID292 (DTP/NCI, 2004).
